No constants are given. Whether binding was seen depends on the method and setting. In cells and extracts the contact can be indirect. Some binding calls cover weakened binding; strength is not graded here.
Assays:
Test in all cases: co-IP; GFP-TRAP of lysates of HEK293A cells expressing GFP-ATG8 constructs, blot for endogenous PCM1; TNTE buffer; cells in full medium, EBSS or EBSS + bafilomycin A1 for 2 hr
GFP-GABARAPL2 (human) = GFP-GABARAPL2 (human) (UniProt P60520)
GFP-LC3A (human) = GFP-LC3A (human) (UniProt Q9H492)
GFP-LC3C (human) = GFP-LC3C (human) (UniProt Q9BXW4)

Chains of the proteins cited; added tags and fusions are not shown. Lines headed by an entry give the natural chain unless they say otherwise; changes in a name come on top. A line that says so, or that is headed by a name, gives the form on record, which may keep a tag or linker. Residues count along the entry.
UniProt P60520: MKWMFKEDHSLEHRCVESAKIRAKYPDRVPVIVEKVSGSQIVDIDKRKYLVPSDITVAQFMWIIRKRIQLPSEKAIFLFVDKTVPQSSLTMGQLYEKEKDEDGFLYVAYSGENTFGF
UniProt Q9BXW4, residues 1-126: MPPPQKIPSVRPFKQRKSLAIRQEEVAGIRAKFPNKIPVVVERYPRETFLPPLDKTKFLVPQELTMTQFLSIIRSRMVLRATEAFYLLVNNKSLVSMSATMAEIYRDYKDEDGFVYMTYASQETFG
PCM1 (endogenous) (Q15154-5, form named): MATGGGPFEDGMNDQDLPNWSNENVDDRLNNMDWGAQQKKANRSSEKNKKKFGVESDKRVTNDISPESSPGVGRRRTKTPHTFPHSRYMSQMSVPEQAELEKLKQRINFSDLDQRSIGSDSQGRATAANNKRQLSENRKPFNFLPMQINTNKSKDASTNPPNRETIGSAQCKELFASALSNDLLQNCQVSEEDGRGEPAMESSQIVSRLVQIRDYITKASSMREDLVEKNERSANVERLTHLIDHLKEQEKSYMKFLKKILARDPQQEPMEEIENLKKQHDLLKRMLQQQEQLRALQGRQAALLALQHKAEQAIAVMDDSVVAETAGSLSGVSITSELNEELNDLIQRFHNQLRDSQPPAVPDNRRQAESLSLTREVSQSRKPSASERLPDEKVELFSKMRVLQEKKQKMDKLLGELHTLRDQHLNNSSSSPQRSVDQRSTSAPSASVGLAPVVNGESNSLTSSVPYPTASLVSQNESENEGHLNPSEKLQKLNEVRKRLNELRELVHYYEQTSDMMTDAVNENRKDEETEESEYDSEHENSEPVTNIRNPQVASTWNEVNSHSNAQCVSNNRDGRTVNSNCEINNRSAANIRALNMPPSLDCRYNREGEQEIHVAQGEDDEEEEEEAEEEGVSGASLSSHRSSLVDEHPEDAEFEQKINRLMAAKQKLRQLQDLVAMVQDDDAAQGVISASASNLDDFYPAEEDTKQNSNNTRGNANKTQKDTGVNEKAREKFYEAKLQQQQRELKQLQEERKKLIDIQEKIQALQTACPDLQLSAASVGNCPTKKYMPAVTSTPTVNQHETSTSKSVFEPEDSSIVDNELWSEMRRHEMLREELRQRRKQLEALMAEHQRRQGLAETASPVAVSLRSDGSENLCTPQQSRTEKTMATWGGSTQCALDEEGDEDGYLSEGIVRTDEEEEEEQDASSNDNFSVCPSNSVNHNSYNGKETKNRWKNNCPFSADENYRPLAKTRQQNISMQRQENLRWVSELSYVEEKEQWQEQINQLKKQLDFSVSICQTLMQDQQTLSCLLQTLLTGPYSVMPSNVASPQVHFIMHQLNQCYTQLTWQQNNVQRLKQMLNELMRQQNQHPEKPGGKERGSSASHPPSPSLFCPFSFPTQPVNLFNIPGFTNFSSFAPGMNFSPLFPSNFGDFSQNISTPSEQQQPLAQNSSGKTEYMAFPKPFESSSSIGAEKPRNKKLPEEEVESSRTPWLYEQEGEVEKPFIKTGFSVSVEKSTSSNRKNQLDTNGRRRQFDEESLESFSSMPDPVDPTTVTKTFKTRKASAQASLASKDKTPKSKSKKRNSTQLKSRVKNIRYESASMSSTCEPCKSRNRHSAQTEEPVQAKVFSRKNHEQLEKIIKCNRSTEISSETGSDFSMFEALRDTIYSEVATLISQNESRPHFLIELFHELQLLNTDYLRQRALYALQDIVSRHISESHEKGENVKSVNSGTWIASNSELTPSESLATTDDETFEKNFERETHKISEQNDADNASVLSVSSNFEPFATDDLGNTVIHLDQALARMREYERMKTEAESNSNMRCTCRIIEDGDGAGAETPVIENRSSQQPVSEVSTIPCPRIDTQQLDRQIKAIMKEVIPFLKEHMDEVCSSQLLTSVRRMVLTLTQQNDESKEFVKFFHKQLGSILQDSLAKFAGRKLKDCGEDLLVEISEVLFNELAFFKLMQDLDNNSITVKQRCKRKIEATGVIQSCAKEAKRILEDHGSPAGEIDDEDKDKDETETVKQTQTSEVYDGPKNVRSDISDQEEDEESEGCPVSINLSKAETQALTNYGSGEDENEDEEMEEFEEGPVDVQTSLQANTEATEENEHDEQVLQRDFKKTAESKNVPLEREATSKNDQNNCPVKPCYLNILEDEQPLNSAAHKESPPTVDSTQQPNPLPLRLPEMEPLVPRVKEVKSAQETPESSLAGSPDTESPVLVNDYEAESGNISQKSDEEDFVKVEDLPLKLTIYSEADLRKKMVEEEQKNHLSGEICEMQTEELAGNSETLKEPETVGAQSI

## PCM1 (endogenous) (from UniProt Q15154-5 1-2016)
GFP-GABARAPL2 (human)
  binding: binds
GFP-LC3A (human)
  binding: binds weakly
GFP-LC3C (human)
  binding: binds

From article PMC5526835
